These results are taken from the supplement of paper PMC4635364.

Where a name gives a salt, the structure may show the parent alone. This is one part of the list. Single values are uncertain here, since repeats match poorly.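 Cells: ReNCell VM human fetal ventral-midbrain neural progenitors, differentiated mitogen-free. Blinded raters compared doublecortin-stained (early neurons) or tyrosine hydroxylase-stained (dopaminergic neurons) images with untreated wells, where 0 means no change. After repeats and both raters were averaged, compounds scoring 2 or above became hits for retesting.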

Experiment [1] deals with ReNCell VM. The experiment is described as follows: neuronal differentiation score (DCX+ cell fraction vs untreated, manual image score) (score (-3 to 3)); higher = more neuronal differentiation. The note with it: 2 uM, 2 weeks.
Experiment [2] relates to ReNCell VM. The experiment is described as follows: dopaminergic neuron differentiation score (TH+ cell fraction vs untreated, manual image score) (score (0 to 3)); higher = more TH+ dopaminergic neuron differentiation. The note with it: 2 uM, 4 weeks, BDNF 10 ng/ml + GDNF 10 ng/ml.

Regarding `CC1(C)S[C@@H]2[C@H](NC(=O)C(C(=O)O)c3ccccc3)C(=O)N2[C@H]1C(=O)O` (stereo not given in full), in the experiment with ReNCell VM [1] (library: Spectrum), the neuronal differentiation score is inactive: 0. Further, the “dopaminergic neuron differentiation score” value in the experiment with ReNCell VM [2] (library: Spectrum) is inactive: 0.
For the compound `NCCc1cc[nH]n1` [Betazole hydrochloride], the neuronal differentiation score in the experiment with ReNCell VM [1] (library: Prestwick) was inactive: 0. In the experiment with ReNCell VM [2] (library: Prestwick), the “dopaminergic neuron differentiation score” value was inactive: 0.
`CC(C)(CO)[C@@H](O)C(=O)NCCCO`: the neuronal differentiation score with ReNCell VM [1] (library: Spectrum) was inactive: 0. Also, in the experiment with ReNCell VM [2] (library: Spectrum), the “dopaminergic neuron differentiation score” value was inactive: 0.
For the compound `NCCS(=O)O` [Hypotaurine], the neuronal differentiation score with ReNCell VM [1] (library: LOPAC) was inactive: 0. Also, the “dopaminergic neuron differentiation score” value with ReNCell VM [2] (library: LOPAC) was inactive: 0.
For `CCn1cc(C(=O)O)c(=O)c2cnc(N3CCCC3)nc21`, the neuronal differentiation score in the experiment with ReNCell VM [1] (library: Spectrum) is inactive: 0. The “dopaminergic neuron differentiation score” value in the experiment with ReNCell VM [2] (library: Spectrum) was inactive: 0.
With `COc1c2c(c(C(=O)C=CC(C)=Cc3ccccc3)c3c1OCO3)CCN(C)C2`, in the experiment on ReNCell VM [1] (library: Natural), the neuronal differentiation score was inactive: 0. Moreover, in the experiment on ReNCell VM [2] (library: Natural), the “dopaminergic neuron differentiation score” value was inactive: 0.
Consider `Cc1ccc(C(=O)C(C)CN2CCCCC2)cc1` (stereo not given), for which the neuronal differentiation score with ReNCell VM [1] (library: Spectrum) was inactive: 1. Moreover, in the experiment with ReNCell VM [2] (library: Spectrum), the “dopaminergic neuron differentiation score” value was inactive: 0.
As to `CCCCN1CCCCC1C(=O)Nc1c(C)cccc1C` (stereo not given), the neuronal differentiation score with ReNCell VM [1] (library: Spectrum) is inactive: 0. The “dopaminergic neuron differentiation score” value in the experiment with ReNCell VM [2] (library: Spectrum) was inactive: 0.
In the case of `Cc1c(C)c2c(c(C)c1O)CCC(C)(COc1ccc(CC3SC(=O)NC3=O)cc1)O2` (stereo not given) [Troglitazone], the neuronal differentiation score in the experiment with ReNCell VM [1] (library: Prestwick) was inactive: 0. The “dopaminergic neuron differentiation score” value in the experiment on ReNCell VM [2] (library: Prestwick) was inactive: 0.
For the compound `CCn1nc(C(=O)O)c(=O)c2cc3c(cc21)OCO3`, the neuronal differentiation score in the experiment on ReNCell VM [1] (library: Spectrum) was inactive: 0. For the same compound, the “dopaminergic neuron differentiation score” value in the experiment on ReNCell VM [2] (library: Spectrum) was inactive: 0.
As for `Oc1ccc2ccccc2c1` [beta-NAPHTHOL], the neuronal differentiation score in the experiment with ReNCell VM [1] (library: Spectrum) was inactive: 0. For the same compound, the “dopaminergic neuron differentiation score” value with ReNCell VM [2] (library: Spectrum) was inactive: 0.
`CCN(CC)CCNC(=O)COc1ccc(OC)cc1`: the neuronal differentiation score in the experiment with ReNCell VM [1] (library: Spectrum) was inactive: 0. In addition, in the experiment on ReNCell VM [2] (library: Spectrum), the “dopaminergic neuron differentiation score” value was inactive: 0.
For `COc1c2ccoc2cc2oc(C)cc(=O)c12` [5-methoxy-2-methylfuranochromone], the neuronal differentiation score with ReNCell VM [1] (library: Phytochemical) was inactive: 0. In addition, the “dopaminergic neuron differentiation score” value in the experiment with ReNCell VM [2] (library: Phytochemical) was inactive: 0.
As to `CC(Oc1ccc(Oc2cnc3ccc(Cl)cc3n2)cc1)C(=O)O` (stereo not given), in the experiment with ReNCell VM [1] (library: LOPAC), the neuronal differentiation score is inactive: 0. Besides, the “dopaminergic neuron differentiation score” value in the experiment with ReNCell VM [2] (library: LOPAC) is inactive: 0.
With `CCC[C@@H]1C[C@@H](C(=O)N[C@@H]([C@H]2O[C@H](SC)[C@H](O)[C@@H](O)[C@H]2O)[C@H](C)Cl)N(C)C1` [Clindamycin hydrochloride], the neuronal differentiation score in the experiment with ReNCell VM [1] (library: Prestwick) was inactive: 0. In addition, in the experiment with ReNCell VM [2] (library: Prestwick), the “dopaminergic neuron differentiation score” value was inactive: 0.
With `CN1CCN(c2cc3c(cc2F)c(=O)c(C(=O)O)cn3-c2ccc(F)cc2)CC1`, the neuronal differentiation score in the experiment with ReNCell VM [1] (library: Spectrum) was inactive: 0. Also, the “dopaminergic neuron differentiation score” value in the experiment on ReNCell VM [2] (library: Spectrum) is inactive: 0.
With `N[C@H](Cc1ccccc1)C(=O)O`, the neuronal differentiation score with ReNCell VM [1] (library: Spectrum) is inactive: 0. In addition, the “dopaminergic neuron differentiation score” value with ReNCell VM [2] (library: Spectrum) was inactive: 0.
With `CCN(CCO)CCCC(C)Nc1ccnc2cc(Cl)ccc12` (stereo not given) [Hydroxychloroquine sulfate], the neuronal differentiation score in the experiment on ReNCell VM [1] (library: Prestwick) was inactive: 0. Besides, in the experiment on ReNCell VM [2] (library: Prestwick), the “dopaminergic neuron differentiation score” value is inactive: 0.
`CO/N=C(\C(=O)N[C@@H]1C(=O)N2C(C(=O)O)=C(C[N+]3(C)CCCC3)CS[C@H]12)c1csc(N)n1`: the neuronal differentiation score with ReNCell VM [1] (library: Spectrum) was inactive: 0. Further, the “dopaminergic neuron differentiation score” value with ReNCell VM [2] (library: Spectrum) was inactive: 0.
In the case of `C[n+]1cccc(C(=O)[O-])c1`, in the experiment with ReNCell VM [1] (library: Spectrum), the neuronal differentiation score is inactive: 0. Moreover, the “dopaminergic neuron differentiation score” value in the experiment with ReNCell VM [2] (library: Spectrum) is inactive: 0.
With `CC[C@@H]1C(=O)OC[C@@H]1Cc1cncn1C` [(+)-Pilocarpine hydrochloride], the neuronal differentiation score in the experiment with ReNCell VM [1] (library: LOPAC) was inactive: 0. For the same compound, the “dopaminergic neuron differentiation score” value with ReNCell VM [2] (library: LOPAC) is inactive: 0.
For the compound `C[C@@H]1CC[C@H]2C(C)(C)[C@H]3C[C@@]12CC[C@@]3(C)O` [cedrol], the neuronal differentiation score in the experiment with ReNCell VM [1] (library: Natural) was inactive: 0. In addition, the “dopaminergic neuron differentiation score” value with ReNCell VM [2] (library: Natural) is inactive: 0.
For `C[C@H](O)C(=O)Nc1c(I)c(C(=O)NC(CO)CO)c(I)c(C(=O)NC(CO)CO)c1I` [Iopamidol], the neuronal differentiation score with ReNCell VM [1] (library: Prestwick) is inactive: 0. The “dopaminergic neuron differentiation score” value with ReNCell VM [2] (library: Prestwick) is inactive: 0.
For `COc1cc(C2=NC(=Cc3ccccc3)C(=O)O2)cc(OC)c1OC` [4-benzylidene-2-(3,4,5-trimethoxy-phenyl)-4h-oxazol-5-one], the neuronal differentiation score in the experiment on ReNCell VM [1] (library: Natural) is inactive: 0. Further, the “dopaminergic neuron differentiation score” value with ReNCell VM [2] (library: Natural) is inactive: 0.
Turning to `CCCn1c(=O)c(C)cn2nc(N)nc12`, the neuronal differentiation score in the experiment on ReNCell VM [1] (library: Tocriscreen) was inactive: 0. Moreover, the “dopaminergic neuron differentiation score” value in the experiment on ReNCell VM [2] (library: Tocriscreen) is inactive: 0.
With `COc1cc([C@@H]2c3cc4c(cc3[C@@H](O[C@@H]3O[C@@H]5CO[C@@H](c6cccs6)O[C@H]5[C@H](O)[C@H]3O)[C@H]3COC(=O)[C@H]23)OCO4)cc(OC)c1O`, in the experiment on ReNCell VM [1] (library: Spectrum), the neuronal differentiation score is inactive: 0. In addition, the “dopaminergic neuron differentiation score” value in the experiment on ReNCell VM [2] (library: Spectrum) was inactive: 0.
With `COc1c2occc2c(OC)c2c(=O)cc(C)oc12` [Khelline], the neuronal differentiation score in the experiment on ReNCell VM [1] (library: Phytochemical) is inactive: 0. Besides, the “dopaminergic neuron differentiation score” value with ReNCell VM [2] (library: Phytochemical) was inactive: 0.
Take `CCCNC(C)C(=O)Nc1ccccc1C` (stereo not given): in the experiment with ReNCell VM [1] (library: Spectrum), the neuronal differentiation score is inactive: 0. In addition, in the experiment with ReNCell VM [2] (library: Spectrum), the “dopaminergic neuron differentiation score” value is inactive: 0.
As to `CCOC(=O)C(C)(C)Oc1ccc(Cl)cc1`, the neuronal differentiation score in the experiment with ReNCell VM [1] (library: Spectrum) was inactive: 0. Also, the “dopaminergic neuron differentiation score” value with ReNCell VM [2] (library: Spectrum) was inactive: 0.
Turning to `CC(C)=CCC/C(C)=C/COc1ccc2ccc(=O)oc2c1`, the neuronal differentiation score with ReNCell VM [1] (library: Spectrum) is inactive: 0. Besides, in the experiment on ReNCell VM [2] (library: Spectrum), the “dopaminergic neuron differentiation score” value was inactive: 0.
As to `COc1cc(OC)c(NC(=O)Nc2cc(C)on2)cc1Cl`, the neuronal differentiation score in the experiment with ReNCell VM [1] (library: Tocriscreen) was inactive: 0. The “dopaminergic neuron differentiation score” value in the experiment on ReNCell VM [2] (library: Tocriscreen) is inactive: 0.
For the compound `Cc1cc2nc3c(=O)[nH]c(=O)nc-3n(CC(O)C(O)C(O)COP(=O)(O)O)c2cc1C` (stereo not given), the neuronal differentiation score with ReNCell VM [1] (library: Spectrum) is inactive: 0. Further, the “dopaminergic neuron differentiation score” value in the experiment with ReNCell VM [2] (library: Spectrum) is inactive: 0.
As for `CC(=O)O[C@]1(C(C)=O)CC[C@H]2[C@@H]3C[C@H](C)C4=CC(=O)CC[C@]4(C)[C@H]3CC[C@@]21C`, the neuronal differentiation score in the experiment on ReNCell VM [1] (library: Spectrum) is inactive: 0. In addition, the “dopaminergic neuron differentiation score” value in the experiment with ReNCell VM [2] (library: Spectrum) is inactive: 0.
`COc1c2c(cc3c1c(=O)c1ccccc1n3C)OCO2` [Evoxanthine]: the neuronal differentiation score in the experiment with ReNCell VM [1] (library: Phytochemical) was inactive: 0. Also, the “dopaminergic neuron differentiation score” value in the experiment on ReNCell VM [2] (library: Phytochemical) is inactive: 0.
`CNNCc1ccc(C(=O)NC(C)C)cc1`: the neuronal differentiation score in the experiment on ReNCell VM [1] (library: Spectrum) is inactive: 1. Also, the “dopaminergic neuron differentiation score” value with ReNCell VM [2] (library: Spectrum) was inactive: 0.
In the same order, the values of `O=c1cc[nH]c(=S)[nH]1` are inactive: 0 and inactive: 0.
In the same order, the values of `CC(=O)c1ccc(S(=O)(=O)NC(=O)NC2CCCCC2)cc1` are inactive: 0 and inactive: 0.
With `Cc1nc2n(c(=O)c1CCN1CCC(c3noc4cc(F)ccc34)CC1)CCCC2` [Risperidone], in the experiment with ReNCell VM [1] (library: Prestwick), the neuronal differentiation score was inactive: 1. Further, in the experiment on ReNCell VM [2] (library: Prestwick), the “dopaminergic neuron differentiation score” value was inactive: 0.
As for `COc1cc(/C=C/C(=O)N2CCC=CC2=O)cc(OC)c1OC` [Piperlongumine], the neuronal differentiation score with ReNCell VM [1] (library: Phytochemical) was inactive: 0. Besides, in the experiment with ReNCell VM [2] (library: Phytochemical), the “dopaminergic neuron differentiation score” value is inactive: 0.
As for `COc1cc(OC)c2c(c1)OC(c1ccccc1)CC2=O` (stereo not given), in the experiment with ReNCell VM [1] (library: Spectrum), the neuronal differentiation score is inactive: 0. Also, in the experiment with ReNCell VM [2] (library: Spectrum), the “dopaminergic neuron differentiation score” value was inactive: 0.
